{"source": "patent US20230338285A1", "about": "“PHARMACEUTICAL COMPOSITION COMPRISING HYDROXYCHLOROQUINE AND USES THEREOF” (priority 2020, published 2023)", "assay": "Aerosol deposition in Vitrocell cell-free inserts", "settings": "for Mean deposition in cell-free Vitrocell inserts: 2.5% drug in propylene glycol"}
{"compound": "CCN(CC)CCCC(C)Nc1ccnc2cc(Cl)ccc12", "note": "(stereo not drawn) [chloroquine]", "values": [{"measurement": "Percent deposition", "setting": "25 puffs", "result": 0.27, "unit": "%"}, {"measurement": "Mean deposition in cell-free Vitrocell inserts", "setting": "25 puffs", "result": 7.998, "unit": "µg"}, {"measurement": "Percent deposition", "setting": "50 puffs", "result": 0.27, "unit": "%"}, {"measurement": "Mean deposition in cell-free Vitrocell inserts", "setting": "50 puffs", "result": 15.022, "unit": "µg"}, {"measurement": "Percent deposition", "setting": "100 puffs", "result": 0.24, "unit": "%"}, {"measurement": "Mean deposition in cell-free Vitrocell inserts", "setting": "100 puffs", "result": 28.311, "unit": "µg"}]}
